In the supplement of paper PMC8728848:
The other results are listed elsewhere or left out.

Assays:
Assay in all cases: glycan array binding signal (z-score within array); higher = stronger binding
Conditions in all cases: glycan notation: IUPAC condensed, linker removed
[1] = biological target: Fuc(a1-2)Gal(b1-4)GlcNAc(b1-3)Gal(b1-4)GlcNAc(b1-2)Man(a1-3)[Fuc(a1-2)Gal(b1-4)GlcNAc(b1-3)Gal(b1-4)GlcNAc(b1-2)Man(a1-6)]Man(b1-4)GlcNAc(b1-4)GlcNAc
Method in brief: (§1)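 Glycan array data came from 3228 arrays in the Consortium for Functional Glycomics database, and only arrays with an available protein sequence were kept. Glycan names were put into IUPAC-condensed notation, and columns mapping to the same glycan were averaged. The binding signal is a within-array Z-score, averaged across arrays of one protein sequence run at different concentrations or buffers and across linkers. A negative Z-score can be read as non-binding.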

[2] = biological target: Fuc(a1-2)Gal(b1-4)GlcNAc(b1-3)Gal(b1-4)GlcNAc(b1-3)Gal(b1-4)GlcNAc
Method in brief: as §1

[3] = biological target: Fuc(a1-2)Gal(b1-4)GlcNAc(b1-3)GalNAc
Method in brief: as §1

[4] = biological target: Fuc(a1-2)Gal(b1-4)GlcNAc(b1-3)[Fuc(a1-2)Gal(b1-4)GlcNAc(b1-6)]GalNAc
Method in brief: as §1

[5] = biological target: Fuc(a1-2)Gal(b1-4)GlcNAc(b1-3)[Fuc(a1-3)[Gal(b1-4)]GlcNAc(b1-6)]Gal(b1-4)Glc
Method in brief: as §1

[6] = biological target: Fuc(a1-2)Gal(b1-4)GlcNAc(b1-6)GalNAc
Method in brief: as §1

[7] = biological target: Fuc(a1-2)Gal(b1-4)GlcNAc6S
Method in brief: as §1

[8] = biological target: Fuc(a1-2)Gal(b1-4)[Fuc(a1-3)]GlcNAc
Method in brief: as §1

[9] = biological target: Fuc(a1-2)Gal(b1-4)[Fuc(a1-3)]GlcNAc(b1-2)Man(a1-3)[Fuc(a1-2)Gal(b1-4)[Fuc(a1-3)]GlcNAc(b1-2)Man(a1-6)]Man(b1-4)GlcNAc(b1-4)[Fuc(a1-6)]GlcNAc
Method in brief: as §1

[10] = biological target: Fuc(a1-2)Gal(b1-4)[Fuc(a1-3)]GlcNAc(b1-2)[Fuc(a1-2)Gal(b1-4)[Fuc(a1-3)]GlcNAc(b1-4)]Man(a1-3)[Fuc(a1-2)Gal(b1-4)[Fuc(a1-3)]GlcNAc(b1-2)Man(a1-6)]Man(b1-4)GlcNAc(b1-4)GlcNAc
Method in brief: as §1

[11] = biological target: Fuc(a1-2)Gal(b1-4)[Fuc(a1-3)]GlcNAc(b1-3)Gal(b1-4)[Fuc(a1-3)]GlcNAc
Method in brief: as §1

[12] = biological target: Fuc(a1-2)Gal(b1-4)[Fuc(a1-3)]GlcNAc(b1-3)Gal(b1-4)[Fuc(a1-3)]GlcNAc(b1-3)Gal(b1-4)[Fuc(a1-3)]GlcNAc
Method in brief: as §1

[13] = biological target: Fuc(a1-2)Gal(b1-4)[Fuc(a1-3)]GlcNAc(b1-3)GalNAc
Method in brief: as §1

[14] = biological target: Fuc(a1-2)Gal(b1-4)[Fuc(a1-3)]GlcNAc(b1-3)[Neu5Ac(a2-6)Gal(b1-4)GlcNAc(b1-6)]Gal(b1-4)Glc
Method in brief: as §1

[15] = biological target: Fuc(a1-2)Gal3S(b1-4)GlcNAc
Method in brief: as §1

[16] = biological target: Fuc(a1-2)Gal6S(b1-3)GlcNAc
Method in brief: as §1

[17] = biological target: Fuc(a1-2)Gal6S(b1-3)GlcNAc6S
Method in brief: as §1

Fuc(a1-2)Gal6S(b1-4)Glc = biological target: Fuc(a1-2)Gal6S(b1-4)Glc
Method in brief: as §1

[18] = biological target: Fuc(a1-2)Gal6S(b1-4)Glc6S
Method in brief: as §1

Fuc(a1-2)[Gal(a1-3)]Gal = biological target: Fuc(a1-2)[Gal(a1-3)]Gal
Method in brief: as §1

[19] = biological target: Fuc(a1-2)[Gal(a1-3)]Gal(b1-3)GalNAc
Method in brief: as §1

[20] = biological target: Fuc(a1-2)[Gal(a1-3)]Gal(b1-3)GalNAc(b1-3)Gal(a1-4)Gal(b1-4)Glc
Method in brief: as §1

[21] = biological target: Fuc(a1-2)[Gal(a1-3)]Gal(b1-3)GlcNAc
Method in brief: as §1

[22] = biological target: Fuc(a1-2)[Gal(a1-3)]Gal(b1-3)GlcNAc(b1-2)Man(a1-3)[Fuc(a1-2)[Gal(a1-3)]Gal(b1-3)GlcNAc(b1-2)Man(a1-6)]Man(b1-4)GlcNAc(b1-4)GlcNAc
Method in brief: as §1

[23] = biological target: Fuc(a1-2)[Gal(a1-3)]Gal(b1-3)GlcNAc(b1-2)Man(a1-3)[Fuc(a1-2)[Gal(a1-3)]Gal(b1-3)GlcNAc(b1-2)Man(a1-6)]Man(b1-4)GlcNAc(b1-4)[Fuc(a1-6)]GlcNAc
Method in brief: as §1

[24] = biological target: Fuc(a1-2)[Gal(a1-3)]Gal(b1-3)GlcNAc(b1-3)GalNAc
Method in brief: as §1

[25] = biological target: Fuc(a1-2)[Gal(a1-3)]Gal(b1-3)GlcNAc(b1-6)GalNAc
Method in brief: as §1

[26] = biological target: Fuc(a1-2)[Gal(a1-3)]Gal(b1-4)Glc
Method in brief: as §1

[27] = biological target: Fuc(a1-2)[Gal(a1-3)]Gal(b1-4)GlcNAc
Method in brief: as §1

[28] = biological target: Fuc(a1-2)[Gal(a1-3)]Gal(b1-4)GlcNAc(b1-2)Man
Method in brief: as §1

B1: B3GalT2 (Rattus norvegicus) (protein)
chain: LMLQWRRRHCCFAKMSWNAKRSLFRTHLMGVLSLVFLFAMFLFFNHHDWLPGRPGFKENPVTYTFRGFRSTKTETNQSSLRNIWKEVVPQTLRPQTATNSNNTELSPQGVTGLENTLSANGSIYNEKGTGHPNSYHFKYIINEPEKCQEKSPFLILLIAAEPGQIEARRAIRQTWGNETLAPGIQITRIFLLGISIKLNGYLQHAIQEESIQYHDIIQQEYLDTYYNLTIKTLMGMNWVATYCPHTPYVMKTDSDMFVNTEYLIHKLLKPDLPPRHNYFTGYLMRGYAPNRNKDSKWYMPPDLYPSERYPVFCSGTGYVFSGDLAEKIFKVSLGIRRLHLEDVYVGICLAKLRVDPVPPPNEFVFNHWRVSYSSCKYSHLITSHQFQPSELIKYWNHLQQNKHNACVNAAKEKAGRYRHRKLH
glycan array binding signal (z-score) [1]: -0.999
glycan array binding signal (z-score) [2]: -0.684
glycan array binding signal (z-score) [3]: 0.324
glycan array binding signal (z-score) [4]: 1.35
glycan array binding signal (z-score) [5]: -0.549
glycan array binding signal (z-score) [6]: 1.19
glycan array binding signal (z-score) [7]: 0.505
glycan array binding signal (z-score) [8]: 0.535
glycan array binding signal (z-score) [9]: -1.03
glycan array binding signal (z-score) [10]: -0.914
glycan array binding signal (z-score) [11]: 0.657
glycan array binding signal (z-score) [12]: 0.395
glycan array binding signal (z-score) [13]: -0.501
glycan array binding signal (z-score) [14]: -0.837
glycan array binding signal (z-score) [15]: 1.19
glycan array binding signal (z-score) [16]: 0.207
glycan array binding signal (z-score) [17]: 0.6
glycan array binding signal (z-score) (Fuc(a1-2)Gal6S(b1-4)Glc): 0.342
glycan array binding signal (z-score) [18]: 0.509
glycan array binding signal (z-score) (Fuc(a1-2)[Gal(a1-3)]Gal): 0.249
glycan array binding signal (z-score) [19]: 0.316
glycan array binding signal (z-score) [20]: 0.853
glycan array binding signal (z-score) [21]: -0.235
glycan array binding signal (z-score) [22]: 0.088
glycan array binding signal (z-score) [23]: 0.023
glycan array binding signal (z-score) [24]: -0.52
glycan array binding signal (z-score) [25]: 0.17
glycan array binding signal (z-score) [26]: 0.403
glycan array binding signal (z-score) [27]: -0.033
glycan array binding signal (z-score) [28]: 1.47
